Experimental data: publication PMC11235583, “Structural basis of odor sensing by insect heteromeric odorant receptors” (Science (New York, N.Y.), 2024)
These are yes or no findings as the source states them, for the method shown. Binding can be weak; no strength is given.

Molecular target: Aedes aegypti odorant receptor OR10 (Aedes aegypti)
Experiment: SEC; complexes purified from HEK293 cells transfected with varying ratios of AaOR10 to Orco DNA; assessed by size exclusion chromatography and SDS-PAGE

B1: Apocrypta bakeri odorant receptor co-receptor Orco (receptor, UniProt B0FAQ4 1-474)
chain: MKFKHQGLVADLLPNIRVMQGVGHFMFNYYSEGKKFPHRIYCIVTLLLLLLQYGMMAVNLMMESDDVDDLTANTITMLFFLHPIVKMIYFPVRSKIFYKTLAIWNNPNSHPLFAESNARFHALAITKMRRLLFCVAGATIFSVISWTGITFIEDSVKRITDPETNETTIIPIPRLMIRTFYPFNAMSGAGHVFALIYQFYYLVISMAVSNSLDVLFCSWLLFACEQLQHLKAIMKPLMELSATLDTVVPNSGELFKAGSADHLRESQGVQPSGNGDNVLDVDLRGIYSNRQDFTATFRPTAGTTFNGGVGPNGLTKKQEMLVRSAIKYWVERHKHVVRLVTAVGDAYGVALLLHMLTTTITLTLLAYQATKVNGVNVYAATVIGYLLYTLGQVFLFCIFGNRLIEESSSVMEAAYSCHWYDGSEEAKTFVQIVCQQCQKAMSISGAKFFTVSLDLFASVLGAVVTYFMVLVQLK
- binding: binds
